This is one part of the list.
Experiments:
Assay in all cases: log2 fold change, soluble protein after heating vs DMSO (PISA); higher = thermal stabilisation; K562 lysate, 10 uM; active = over 0.2 and 3.5 SD of the protein, either way, in both replicates (recomputed)
erlotinib = compound: C#Cc1cccc(Nc2ncnc3cc(OCCOC)c(OCCOC)cc23)c1 [erlotinib]
Procedure, shortened: (§1)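 Following dounce homogenisation of K562 pellets in PBS pH 7.4 with 1 mM MgCl2, crude extract at 1 mg/mL protein was incubated for 30 min with 10 μM compound. Aliquots were then heated for 3 min over 48°C-58°C and pooled, NP-40 was added to 0.5% at 4°C, and soluble protein was recovered as the supernatant at 21,000xg for 90 min. Channel-sum-equalised TMTpro 16plex LC-MS/MS quantified this protein. Each value, from duplicates, is a log-two fold change in thermal stability relative to solvent controls.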

By UniProt entry, the sequences of proteins in these tests, tags left out. Where a name states a change or a piece, a line headed by the entry shows the natural chain unless it says otherwise.
UniProt Q9NVH6: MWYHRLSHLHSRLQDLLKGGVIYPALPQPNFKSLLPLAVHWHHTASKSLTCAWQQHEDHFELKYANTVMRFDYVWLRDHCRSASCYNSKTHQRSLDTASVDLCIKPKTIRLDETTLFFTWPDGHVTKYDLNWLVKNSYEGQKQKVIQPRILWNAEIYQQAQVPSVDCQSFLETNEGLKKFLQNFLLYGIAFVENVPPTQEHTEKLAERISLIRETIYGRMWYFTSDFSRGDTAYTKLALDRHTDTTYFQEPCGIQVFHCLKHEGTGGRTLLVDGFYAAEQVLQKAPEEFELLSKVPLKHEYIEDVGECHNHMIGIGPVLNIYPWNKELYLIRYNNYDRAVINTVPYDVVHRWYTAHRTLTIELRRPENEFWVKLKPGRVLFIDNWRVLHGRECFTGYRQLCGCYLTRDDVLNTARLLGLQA
UniProt Q96K49: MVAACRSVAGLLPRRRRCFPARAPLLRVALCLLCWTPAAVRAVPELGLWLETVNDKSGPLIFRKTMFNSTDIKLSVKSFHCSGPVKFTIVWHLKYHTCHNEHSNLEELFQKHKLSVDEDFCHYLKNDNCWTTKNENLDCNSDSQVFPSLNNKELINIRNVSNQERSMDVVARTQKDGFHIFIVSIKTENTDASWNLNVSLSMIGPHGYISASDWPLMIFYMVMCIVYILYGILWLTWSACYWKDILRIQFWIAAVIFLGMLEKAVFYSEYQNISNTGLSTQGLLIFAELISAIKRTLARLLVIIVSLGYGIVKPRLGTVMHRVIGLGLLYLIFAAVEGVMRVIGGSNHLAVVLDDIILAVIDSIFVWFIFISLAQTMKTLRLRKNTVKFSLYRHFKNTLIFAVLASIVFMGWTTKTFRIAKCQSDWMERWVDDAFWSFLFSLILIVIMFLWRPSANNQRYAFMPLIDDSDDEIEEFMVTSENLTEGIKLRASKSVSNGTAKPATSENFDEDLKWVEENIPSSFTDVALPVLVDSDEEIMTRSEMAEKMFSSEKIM
UniProt Q16890: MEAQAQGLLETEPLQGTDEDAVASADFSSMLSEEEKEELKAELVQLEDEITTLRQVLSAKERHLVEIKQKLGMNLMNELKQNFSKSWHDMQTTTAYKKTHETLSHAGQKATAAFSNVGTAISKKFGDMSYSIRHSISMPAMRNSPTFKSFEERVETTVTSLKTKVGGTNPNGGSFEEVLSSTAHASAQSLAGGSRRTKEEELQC
UniProt P51580: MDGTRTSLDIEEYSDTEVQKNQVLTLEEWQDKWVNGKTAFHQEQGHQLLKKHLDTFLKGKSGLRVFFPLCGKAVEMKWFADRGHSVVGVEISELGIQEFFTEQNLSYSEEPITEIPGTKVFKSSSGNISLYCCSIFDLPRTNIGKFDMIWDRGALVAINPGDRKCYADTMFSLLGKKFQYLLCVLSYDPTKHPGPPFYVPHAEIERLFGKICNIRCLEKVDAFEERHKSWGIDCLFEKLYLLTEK
UniProt P28908: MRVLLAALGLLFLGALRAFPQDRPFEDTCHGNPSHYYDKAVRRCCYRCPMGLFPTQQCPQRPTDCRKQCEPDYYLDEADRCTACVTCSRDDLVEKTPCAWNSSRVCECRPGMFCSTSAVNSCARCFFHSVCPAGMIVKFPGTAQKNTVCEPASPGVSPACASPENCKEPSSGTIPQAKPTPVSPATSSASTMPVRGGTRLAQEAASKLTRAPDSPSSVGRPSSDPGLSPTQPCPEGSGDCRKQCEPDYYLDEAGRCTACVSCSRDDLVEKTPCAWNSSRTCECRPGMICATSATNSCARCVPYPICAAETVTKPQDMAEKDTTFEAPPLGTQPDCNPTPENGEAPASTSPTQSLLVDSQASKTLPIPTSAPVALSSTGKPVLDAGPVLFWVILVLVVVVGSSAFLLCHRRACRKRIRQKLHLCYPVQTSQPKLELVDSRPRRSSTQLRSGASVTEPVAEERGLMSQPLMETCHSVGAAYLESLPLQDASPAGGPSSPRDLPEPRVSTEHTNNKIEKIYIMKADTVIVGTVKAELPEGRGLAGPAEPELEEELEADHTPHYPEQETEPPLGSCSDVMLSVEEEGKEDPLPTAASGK
UniProt P60174, whole entry, looked up: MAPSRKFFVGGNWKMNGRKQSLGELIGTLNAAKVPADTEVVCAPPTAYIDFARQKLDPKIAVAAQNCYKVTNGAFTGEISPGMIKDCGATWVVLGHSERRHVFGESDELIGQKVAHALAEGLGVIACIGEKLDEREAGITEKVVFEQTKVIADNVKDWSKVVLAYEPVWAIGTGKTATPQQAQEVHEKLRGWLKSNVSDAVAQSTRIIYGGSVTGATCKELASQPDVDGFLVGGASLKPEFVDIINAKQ
UniProt Q5JU69: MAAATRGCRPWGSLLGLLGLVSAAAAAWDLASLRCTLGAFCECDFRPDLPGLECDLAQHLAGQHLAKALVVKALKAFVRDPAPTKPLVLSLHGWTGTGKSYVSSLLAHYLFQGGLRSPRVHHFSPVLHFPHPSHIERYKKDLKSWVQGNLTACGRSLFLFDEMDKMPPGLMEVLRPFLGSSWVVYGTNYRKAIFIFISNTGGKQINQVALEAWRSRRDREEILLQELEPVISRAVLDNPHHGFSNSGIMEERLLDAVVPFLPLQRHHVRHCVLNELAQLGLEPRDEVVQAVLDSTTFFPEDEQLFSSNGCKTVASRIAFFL
UniProt Q02880: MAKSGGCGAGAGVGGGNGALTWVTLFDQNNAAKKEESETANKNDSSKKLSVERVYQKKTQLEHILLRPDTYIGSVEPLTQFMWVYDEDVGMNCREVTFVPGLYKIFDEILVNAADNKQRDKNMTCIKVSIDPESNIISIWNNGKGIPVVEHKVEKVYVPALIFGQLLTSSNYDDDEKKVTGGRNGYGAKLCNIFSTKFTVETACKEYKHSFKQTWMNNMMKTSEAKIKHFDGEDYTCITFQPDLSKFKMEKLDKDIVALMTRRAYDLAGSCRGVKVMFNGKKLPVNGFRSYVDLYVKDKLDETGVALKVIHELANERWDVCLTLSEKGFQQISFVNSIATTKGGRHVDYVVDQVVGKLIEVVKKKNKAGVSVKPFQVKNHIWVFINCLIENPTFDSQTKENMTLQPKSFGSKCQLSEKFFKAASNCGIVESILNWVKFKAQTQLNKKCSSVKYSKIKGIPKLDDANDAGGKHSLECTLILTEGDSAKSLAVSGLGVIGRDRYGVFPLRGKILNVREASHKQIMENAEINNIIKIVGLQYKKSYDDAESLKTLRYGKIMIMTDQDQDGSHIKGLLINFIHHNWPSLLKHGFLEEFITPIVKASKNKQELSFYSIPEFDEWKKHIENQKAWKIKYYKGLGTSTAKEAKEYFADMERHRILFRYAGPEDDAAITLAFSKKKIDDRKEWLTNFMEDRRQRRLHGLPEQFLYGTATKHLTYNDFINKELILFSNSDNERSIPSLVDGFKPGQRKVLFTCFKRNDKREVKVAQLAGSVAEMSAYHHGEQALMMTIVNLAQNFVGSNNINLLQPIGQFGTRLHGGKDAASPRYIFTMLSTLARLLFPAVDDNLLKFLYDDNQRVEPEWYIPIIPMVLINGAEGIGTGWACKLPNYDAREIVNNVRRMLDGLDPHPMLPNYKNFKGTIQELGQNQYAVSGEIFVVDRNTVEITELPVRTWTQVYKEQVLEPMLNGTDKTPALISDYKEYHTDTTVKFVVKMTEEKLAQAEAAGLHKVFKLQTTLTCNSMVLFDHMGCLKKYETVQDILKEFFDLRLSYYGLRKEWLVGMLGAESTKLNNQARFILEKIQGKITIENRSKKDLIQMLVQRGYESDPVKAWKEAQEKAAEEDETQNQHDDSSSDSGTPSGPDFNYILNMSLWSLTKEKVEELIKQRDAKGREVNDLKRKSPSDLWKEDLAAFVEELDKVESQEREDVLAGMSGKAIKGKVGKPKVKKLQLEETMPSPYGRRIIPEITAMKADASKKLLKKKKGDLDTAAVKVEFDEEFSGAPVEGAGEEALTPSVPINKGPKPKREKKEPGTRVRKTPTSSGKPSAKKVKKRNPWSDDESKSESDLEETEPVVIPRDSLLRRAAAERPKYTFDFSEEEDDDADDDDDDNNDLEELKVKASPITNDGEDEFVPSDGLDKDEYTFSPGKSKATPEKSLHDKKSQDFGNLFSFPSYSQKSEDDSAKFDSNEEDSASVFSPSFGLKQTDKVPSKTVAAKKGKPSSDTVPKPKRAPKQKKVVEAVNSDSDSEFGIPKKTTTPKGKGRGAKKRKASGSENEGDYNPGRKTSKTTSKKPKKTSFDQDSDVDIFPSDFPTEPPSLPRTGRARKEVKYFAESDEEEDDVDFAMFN
UniProt Q9H4I3: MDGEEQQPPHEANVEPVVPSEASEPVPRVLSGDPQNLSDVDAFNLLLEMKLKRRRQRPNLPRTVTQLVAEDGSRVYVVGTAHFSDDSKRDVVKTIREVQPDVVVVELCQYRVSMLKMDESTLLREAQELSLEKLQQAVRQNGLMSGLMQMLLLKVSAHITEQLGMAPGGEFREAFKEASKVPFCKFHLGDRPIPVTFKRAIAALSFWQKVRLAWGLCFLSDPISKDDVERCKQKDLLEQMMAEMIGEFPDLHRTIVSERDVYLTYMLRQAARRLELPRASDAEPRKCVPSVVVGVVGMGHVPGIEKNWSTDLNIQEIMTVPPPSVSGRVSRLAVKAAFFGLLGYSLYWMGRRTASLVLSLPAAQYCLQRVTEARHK
UniProt P29144: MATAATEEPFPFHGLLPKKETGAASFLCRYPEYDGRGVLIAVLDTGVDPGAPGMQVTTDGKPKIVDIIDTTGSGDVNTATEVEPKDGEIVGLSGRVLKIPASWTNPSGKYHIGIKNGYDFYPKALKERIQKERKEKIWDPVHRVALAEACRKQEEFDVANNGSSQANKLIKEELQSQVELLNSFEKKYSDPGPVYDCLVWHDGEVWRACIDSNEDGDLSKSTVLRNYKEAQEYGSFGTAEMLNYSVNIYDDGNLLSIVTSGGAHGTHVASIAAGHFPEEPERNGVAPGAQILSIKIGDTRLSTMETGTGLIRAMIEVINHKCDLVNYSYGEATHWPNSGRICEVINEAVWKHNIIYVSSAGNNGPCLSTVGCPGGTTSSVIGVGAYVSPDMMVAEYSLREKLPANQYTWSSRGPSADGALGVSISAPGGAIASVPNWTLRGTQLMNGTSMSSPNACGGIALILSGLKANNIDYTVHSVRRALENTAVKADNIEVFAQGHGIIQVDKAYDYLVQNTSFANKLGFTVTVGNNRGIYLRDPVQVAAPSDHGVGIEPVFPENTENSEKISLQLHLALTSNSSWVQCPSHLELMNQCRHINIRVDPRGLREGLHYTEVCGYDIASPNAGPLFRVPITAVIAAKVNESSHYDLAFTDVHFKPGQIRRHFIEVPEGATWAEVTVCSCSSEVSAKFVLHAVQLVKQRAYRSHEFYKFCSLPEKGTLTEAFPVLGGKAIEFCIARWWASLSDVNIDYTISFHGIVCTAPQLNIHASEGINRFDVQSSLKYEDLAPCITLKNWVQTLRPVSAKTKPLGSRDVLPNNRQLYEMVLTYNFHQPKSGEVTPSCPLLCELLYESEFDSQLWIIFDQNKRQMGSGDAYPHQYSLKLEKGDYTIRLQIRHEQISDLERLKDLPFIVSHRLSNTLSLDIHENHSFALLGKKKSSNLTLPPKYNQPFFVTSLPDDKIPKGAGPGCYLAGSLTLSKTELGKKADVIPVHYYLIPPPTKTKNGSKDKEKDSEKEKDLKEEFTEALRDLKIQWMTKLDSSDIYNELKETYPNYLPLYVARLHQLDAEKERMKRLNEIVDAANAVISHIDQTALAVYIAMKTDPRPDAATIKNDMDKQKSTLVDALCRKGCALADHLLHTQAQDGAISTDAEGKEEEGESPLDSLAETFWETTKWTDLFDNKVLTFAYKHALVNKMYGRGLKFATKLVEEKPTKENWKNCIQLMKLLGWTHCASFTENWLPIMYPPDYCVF
UniProt O60784, whole entry, looked up: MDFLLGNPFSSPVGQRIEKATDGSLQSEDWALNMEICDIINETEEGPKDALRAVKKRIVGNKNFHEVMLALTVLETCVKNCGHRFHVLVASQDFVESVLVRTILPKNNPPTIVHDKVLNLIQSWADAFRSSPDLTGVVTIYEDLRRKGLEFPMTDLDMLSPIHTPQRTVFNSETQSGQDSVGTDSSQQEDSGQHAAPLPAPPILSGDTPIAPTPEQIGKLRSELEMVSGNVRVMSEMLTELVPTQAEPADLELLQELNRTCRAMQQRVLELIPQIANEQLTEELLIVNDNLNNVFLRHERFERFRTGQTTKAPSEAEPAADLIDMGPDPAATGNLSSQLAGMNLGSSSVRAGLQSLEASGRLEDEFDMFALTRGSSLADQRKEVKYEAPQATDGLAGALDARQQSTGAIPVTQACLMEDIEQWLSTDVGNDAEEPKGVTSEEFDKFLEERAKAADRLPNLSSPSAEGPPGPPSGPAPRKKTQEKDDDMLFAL
UniProt P63313: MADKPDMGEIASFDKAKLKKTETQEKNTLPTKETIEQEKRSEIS

[1] = compound: C/C(=N\NC(=O)C1=CC(=CC=C1)S(=O)(=O)N2CCOCC2)/C3=C(C=CC(=C3)Cl)O
Procedure, shortened: as §1

[2] = compound: C1=CC(=CC=C1C2=NC3=C(N2)C=C(C=C3)C(=O)N)OC4=CC=C(C=C4)Cl
Procedure, shortened: as §1

[3] = compound: C1=CC2=C(C=CC(=C2)/C=C\3/C(=O)NC(=NCC4=CC=CS4)S3)N=C1
Procedure, shortened: as §1

[4] = compound: C1=CC2=NC=CN=C2C=C1/C=C/3\C(=O)NC(=O)S3
Procedure, shortened: as §1

[5] = compound: C1=CC=C(C=C1)C2=NC(=C(N2)C3=CC=NC=C3)C4=CC(=C(C=C4)Cl)O
Procedure, shortened: as §1

[6] = compound: C1=CC=C2C(=C1)C3=NNC4=CC=CC(=C43)C2=O
Procedure, shortened: as §1

[7] = compound: C1CCN(C1)C(=O)NC2=CC=CC(=C2)NC3=NC=C(C(=N3)NCCC4=CN=CN4)Br
Procedure, shortened: as §1

[8] = compound: C1CN(CCC1(CC2=CC=C(C=C2)Cl)N)C3=NC=NC4=C3C=CN4
Procedure, shortened: as §1

IRAK-1-4 Inhibitor I = compound: C1COCCN1CCN2C3=CC=CC=C3N=C2NC(=O)C4=CC(=CC=C4)[N+](=O)[O-] [IRAK-1-4 Inhibitor I]
Procedure, shortened: as §1

ibrutinib = compound: C=CC(=O)N1CCC[C@@H](n2nc(-c3ccc(Oc4ccccc4)cc3)c3c(N)ncnc32)C1 [ibrutinib]
Procedure, shortened: as §1

[9] = compound: CC(=O)c1cnc2ccc(-c3cc(Cl)c(O)c(Cl)c3)nc2c1N[C@H]1CC[C@H](CN(C)C)CC1
Procedure, shortened: as §1

ralimetinib = compound: CC(C)(C)Cn1c(N)nc2ccc(-c3[nH]c(C(C)(C)C)nc3-c3ccc(F)cc3)nc21 [ralimetinib]
Procedure, shortened: as §1

[10] = compound: CC(C)(O)CC(=O)NCCn1ccc2ncnc(Nc3ccc(Oc4cccc(C(F)(F)F)c4)c(Cl)c3)c21
Procedure, shortened: as §1

[11] = compound: CC(C)C1=C2N=C(C=C(N2N=C1)NCC3=CC=CC=C3)NCCCCCCN
Procedure, shortened: as §1

[12] = compound: CC1=C(C(CC(=O)N1)C2=CC=C(C=C2)C(F)(F)F)C(=O)NC3=C(C=C4C(=C3)C=NN4)F
Procedure, shortened: as §1

[13] = compound: CC1=C(C2=C(C=C1)C(=O)C3=CC=CC=C3N2CCCN)C
Procedure, shortened: as §1

[14] = compound: CC1=C(C=C(C=C1)NC(=O)C2=CC(=CC=C2)C(C)(C)C#N)NC3=CC4=C(C=C3)N=CN(C4=O)C
Procedure, shortened: as §1

[15] = compound: CC1=C(C=C(C=C1)NC(=O)C2=CC(=CC=C2)N(C)C)NC(=O)C3=CC=C(C=C3)O
Procedure, shortened: as §1

[16] = compound: CC1=CC=C(C=C1)SC2=C3C=C(SC3=CN=C2)C(=O)N
Procedure, shortened: as §1

Measured: log2 fold change

TMLHE isoform 8 (UniProt Q9NVH6)
inactive: erlotinib -0.014 | [1] -0.065 | [2] 0.017 | [3] -0.056 | [4] -0.006 | [5] -0.013 | [6] 0.037 | [7] 0.002 | [8] 0.068 | IRAK-1-4 Inhibitor I 0.038 | ibrutinib -0.001 | [9] 0.011 | ralimetinib -0.004 | [10] -0.08 | [11] 0.025 | [12] -0.013 | [13] -0.011 | [14] 0.042 | [15] 0 | [16] 0.023

TMEM87B (UniProt Q96K49)
inactive: erlotinib -0.016 | [1] 0.103 | [2] 0.093 | [3] -0.003 | [4] 0.117 | [5] 0.03 | [6] -0.019 | [7] 0.006 | [8] -0.008 | IRAK-1-4 Inhibitor I -0.045 | ibrutinib -0.076 | [9] -0.017 | ralimetinib -0.003 | [10] -0.001 | [11] -0.047 | [12] -0.011 | [13] -0.01 | [14] -0.012 | [15] 0.028 | [16] -0.012

TPD52L1 (UniProt Q16890)
inactive: erlotinib -0.035 | [1] -0.047 | [2] 0.038 | [3] 0 | [4] -0.028 | [5] 0.005 | [6] 0.034 | [7] -0.004 | [8] 0.028 | IRAK-1-4 Inhibitor I 0.007 | ibrutinib 0.095 | [9] -0.032 | ralimetinib -0.052 | [10] -0.037 | [11] 0.006 | [12] 0.031 | [13] 0.024 | [14] -0.045 | [15] -0.062 | [16] -0.038

TPMT (UniProt P51580)
inactive: erlotinib -0.022 | [1] 0.041 | [2] 0 | [3] -0.043 | [4] -0.002 | [5] 0.006 | [6] -0.027 | [7] -0.031 | [8] 0.037 | IRAK-1-4 Inhibitor I -0.018 | ibrutinib -0.003 | [9] -0.008 | ralimetinib -0.009 | [10] 0.04 | [11] -0.027 | [12] -0.015 | [13] 0.031 | [14] -0.005 | [15] -0.027 | [16] -0.006

2 successive entries out of the list so far, quoted:
TPD52L1 (UniProt Q16890)
inactive: erlotinib -0.035 | [1] -0.047 | [2] 0.038 | [3] 0 | [4] -0.028 | [5] 0.005 | [6] 0.034 | [7] -0.004 | [8] 0.028 | IRAK-1-4 Inhibitor I 0.007 | ibrutinib 0.095 | [9] -0.032 | ralimetinib -0.052 | [10] -0.037 | [11] 0.006 | [12] 0.031 | [13] 0.024 | [14] -0.045 | [15] -0.062 | [16] -0.038

TPMT (UniProt P51580)
inactive: erlotinib -0.022 | [1] 0.041 | [2] 0 | [3] -0.043 | [4] -0.002 | [5] 0.006 | [6] -0.027 | [7] -0.031 | [8] 0.037 | IRAK-1-4 Inhibitor I -0.018 | ibrutinib -0.003 | [9] -0.008 | ralimetinib -0.009 | [10] 0.04 | [11] -0.027 | [12] -0.015 | [13] 0.031 | [14] -0.005 | [15] -0.027 | [16] -0.006

(listing goes on)

TNFRSF8 (UniProt P28908)
inactive: erlotinib -0.006 | [1] -0.017 | [2] 0.047 | [3] -0.011 | [4] -0.022 | [5] -0.003 | [6] 0.054 | [7] -0.043 | [8] 0.038 | IRAK-1-4 Inhibitor I -0.004 | ibrutinib 0.036 | [9] 0.067 | ralimetinib 0.007 | [10] -0.055 | [11] -0.01 | [12] -0.002 | [13] 0.004 | [14] 0.019 | [15] 0.003 | [16] 0.016

TPI1 (UniProt P60174)
inactive: erlotinib -0.005 | [1] 0.038 | [2] 0.022 | [3] 0.012 | [4] -0.019 | [5] 0.003 | [6] 0.072 | [7] -0.024 | [8] 0.002 | IRAK-1-4 Inhibitor I 0.049 | ibrutinib -0.026 | [9] -0.001 | ralimetinib 0.097 | [10] -0.035 | [11] 0.008 | [12] -0.033 | [13] -0.003 | [14] 0.012 | [15] -0.019 | [16] -0.001

TOR2A (UniProt Q5JU69)
inactive: erlotinib 0.007 | [1] -0.009 | [2] -0.003 | [3] 0.06 | [4] -0.051 | [5] 0.037 | [6] -0.055 | [7] 0.062 | [8] 0.007 | IRAK-1-4 Inhibitor I 0.035 | ibrutinib 0.028 | [9] 0.009 | ralimetinib 0.024 | [10] -0.007 | [11] -0.039 | [12] -0.054 | [13] -0.087 | [14] 0.024 | [15] 0.016 | [16] -0.019

TPP2 (UniProt Q5VZU9)
inactive: erlotinib 0.043 | [1] -0.036 | [2] 0.086 | [3] -0.012 | [4] 0 | [5] 0.131 | [6] -0.013 | [7] 0 | [8] 0.066 | IRAK-1-4 Inhibitor I 0.005 | ibrutinib 0.073 | [9] -0.025 | ralimetinib -0.018 | [10] 0.046 | [11] -0.041 | [12] 0.056 | [13] 0.018 | [14] -0.049 | [15] -0.017 | [16] 0.061

TOP2B isoform 2 (UniProt Q02880)
inactive: erlotinib 0.006 | [1] -0.004 | [2] -0.005 | [3] 0.057 | [4] -0.011 | [5] 0.009 | [6] 0.058 | [7] 0.029 | [8] -0.012 | IRAK-1-4 Inhibitor I 0.014 | ibrutinib 0.008 | [9] -0.006 | ralimetinib 0.016 | [10] -0.032 | [11] -0.032 | [12] -0.015 | [13] -0.086 | [14] -0.034 | [15] 0.019 | [16] 0.013

TMEM33 (UniProt P57088)
inactive: erlotinib 0.02 | [1] 0.022 | [2] 0.005 | [3] -0.034 | [4] 0.001 | [5] -0.017 | [6] -0.042 | [7] 0 | [8] 0.046 | IRAK-1-4 Inhibitor I 0.033 | ibrutinib 0.019 | [9] -0.014 | ralimetinib -0.001 | [10] 0.032 | [11] 0.029 | [12] 0.01 | [13] -0.065 | [14] 0.024 | [15] -0.027 | [16] -0.01

TRABD (UniProt Q9H4I3)
inactive: erlotinib -0.04 | [1] -0.121 | [2] 0.021 | [3] -0.022 | [4] -0.016 | [5] -0.056 | [6] -0.083 | [7] -0.007 | [8] -0.037 | IRAK-1-4 Inhibitor I 0.044 | ibrutinib -0.02 | [9] 0.008 | ralimetinib 0.006 | [10] 0.019 | [11] 0.017 | [12] -0.014 | [13] -0.006 | [14] 0.046 | [15] -0.028 | [16] -0.06

TPP2 (UniProt P29144)
inactive: erlotinib -0.001 | [1] -0.098 | [2] 0.01 | [3] 0.001 | [4] 0.006 | [5] 0 | [6] -0.02 | [7] -0.003 | [8] -0.005 | IRAK-1-4 Inhibitor I -0.002 | ibrutinib -0.018 | [9] -0.016 | ralimetinib -0.002 | [10] 0.014 | [11] -0.012 | [12] -0.013 | [13] 0.003 | [14] 0.008 | [15] 0.012 | [16] 0.002

TOM1 isoform 2 (UniProt O60784)
inactive: erlotinib -0.029 | [1] -0.014 | [2] 0.028 | [3] 0.019 | [4] -0.019 | [5] 0.002 | [6] -0.031 | [7] -0.032 | [8] 0.011 | IRAK-1-4 Inhibitor I 0.003 | ibrutinib -0.01 | [9] 0.03 | ralimetinib 0.037 | [10] -0.064 | [11] 0.017 | [12] -0.001 | [13] -0.03 | [14] 0.039 | [15] -0.027 | [16] -0.018

TMX3 (UniProt Q96JJ7)
inactive: erlotinib 0 | [1] -0.02 | [2] 0.003 | [3] -0.01 | [4] 0.014 | [5] 0.004 | [6] -0.036 | [7] 0.014 | [8] 0.048 | IRAK-1-4 Inhibitor I 0.003 | ibrutinib -0.015 | [9] 0.006 | ralimetinib -0.03 | [10] -0.003 | [11] -0.018 | [12] -0.013 | [13] -0.013 | [14] 0.022 | [15] -0.003 | [16] -0.006

TOP3B (UniProt O95985)
inactive: erlotinib -0.01 | [1] 0.006 | [2] -0.025 | [3] -0.007 | [4] -0.018 | [5] -0.019 | [6] 0.007 | [7] -0.015 | [8] 0.023 | IRAK-1-4 Inhibitor I -0.014 | ibrutinib 0.007 | [9] -0.009 | ralimetinib 0.029 | [10] 0.024 | [11] -0.01 | [12] 0.007 | [13] -0.022 | [14] 0.031 | [15] 0.021 | [16] 0.005

TMSB10 (UniProt P63313)
inactive: erlotinib 0.076 | [1] 0.145 | [2] -0.064 | [3] 0.01 | [4] 0.061 | [5] -0.035 | [6] 0.054 | [7] -0.027 | [8] 0.093 | IRAK-1-4 Inhibitor I -0.079 | ibrutinib 0 | [9] -0.183 | ralimetinib -0.011 | [10] -0.025 | [11] -0.021 | [12] -0.059 | [13] 0.071 | [14] 0.106 | [15] -0.016 | [16] 0.049

From the supplement of paper PMC10849652
